Some of the results follow.

Sequences of proteins named here, by UniProt entry; tags and fusion partners are left off.
UniProt Q0JBA9, entry or part of it: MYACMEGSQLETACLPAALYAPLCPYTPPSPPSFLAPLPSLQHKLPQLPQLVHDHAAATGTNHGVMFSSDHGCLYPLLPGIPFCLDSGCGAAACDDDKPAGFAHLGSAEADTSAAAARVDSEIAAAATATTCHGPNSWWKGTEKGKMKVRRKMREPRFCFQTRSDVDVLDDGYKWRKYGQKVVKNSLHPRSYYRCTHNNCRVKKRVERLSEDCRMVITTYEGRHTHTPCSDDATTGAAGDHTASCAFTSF

This assay concerns the target OsWRKY34 (Oryza sativa, UniProt Q0JBA9 1-250). Briefly: protein-binding microarray (RPBM); PBS, 2% BSA, 51.3 ng/ul salmon testes DNA, 50 uM zinc acetate, 200 nM TF, 25 C, 1 h; high values mean tight binding. As to conditions: protein: recombinant; tags: N-terminal polyhistidine and DsRed monomer fusion (pET32a); label: CyDye5-dUTP incorporated in the synthesized complementary strand; 3' TTTTT single-stranded linker to array surface; dsDNA, one strand shown. Put shortly: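 Polyhistidine-tagged DsRed fusions of transcription factors, joined at the N-terminus, were expressed in E. coli BL21-CodonPlus and isolated on Ni–NTA. They were incubated at 200 nM for 1 h at 25 °C on a custom Agilent array, double-stranded and BSA-blocked, in PBS with 2% BSA, salmon testes DNA and 50 µM zinc acetate. The binding signal is per-feature fluorescence intensity (arbitrary units) read on an Axon 4000B scanner after washing.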
“TTCCGGTGAAAATTTTGGCCTCTTTTTCGGAAGTTTTTTTCGGAGTCACCTAGTGCAG”: the binding signal was 9600 fluorescence intensity (a.u.).
As for “TGATATTTCTGTTTATTTGATTTACATGATACACTAATTTCGGAGTCACCTAGTGCAG”, the figure is 8940 fluorescence intensity (a.u.); as for “CCTTTCCTAAGTCTCTGTTTTAACATCTCTATTGGGGCATCGGAGTCACCTAGTGCAG”, 8940 fluorescence intensity (a.u.); as for “TCCCCGATGATCTCGTACACCATGTCCTCTCGTTCTTGCCCGGAGTCACCTAGTGCAG”, 8160 fluorescence intensity (a.u.).
For the sequence “GGAAGCATCAACTTTGACTATTTTGGAAAATTCCCAGCCTCGGAGTCACCTAGTGCAG”, the binding signal was 8260 fluorescence intensity (a.u.).
In the case of “TCCCGCTTTGACCCGCCTCCGTGTCACTCACTCCCGCCCGCGGAGTCACCTAGTGCAG”, the binding signal is 10200 fluorescence intensity (a.u.).
For the sequence “TTCCTTGAGTCTATCTCTCATGTGATTCCTGCATTTTTCCCGGAGTCACCTAGTGCAG”, the binding signal was 10700 fluorescence intensity (a.u.).
As for “ATTTCCACCGTTTGGGTGTGGATGGGAGTGGGATATAGAACGGAGTCACCTAGTGCAG”, the figure is 11900 fluorescence intensity (a.u.); as for “TTTGATCCCTATTTGAGTTTCCGTTTCACTTTCCAGCACACGGAGTCACCTAGTGCAG”, 9320 fluorescence intensity (a.u.); as for “TCCCTCGCCGCCGCCACCGCTCGCCGCTCCTCTCTCGCCGCGGAGTCACCTAGTGCAG”, 9440 fluorescence intensity (a.u.).
As for “CTTCTTGAGTTCTTGGAGGTCGAGGGGTGGGTCATCAATGCGGAGTCACCTAGTGCAG”, the binding signal was 11600 fluorescence intensity (a.u.).
With “GCCGTTAACCATGGTGTGGTGGTCGTCTTCTTCCTCAATACGGAGTCACCTAGTGCAG” the figure was 8540 fluorescence intensity (a.u.); with “ACTGGGCACTATTTCTTCTCTCACTCTCTCTCTCTCTCTCCGGAGTCACCTAGTGCAG”, 8550 fluorescence intensity (a.u.); with “CGCTTTTTGAACGTGGCCAAATATCCATTTTCTCGTCAATCGGAGTCACCTAGTGCAG”, 9550 fluorescence intensity (a.u.).
As to “TTTTCTGCACACTTTGTCCTCACTCGTGTACACCCGGGAACGGAGTCACCTAGTGCAG”, the binding signal was 9270 fluorescence intensity (a.u.).
With “TGGATCTCCGATTACCTCCCATACTTGGGCTATGATTTTCCGGAGTCACCTAGTGCAG” the figure was 9230 fluorescence intensity (a.u.); with “TCGGCGTCGCTCCTCCTCCAGCTACAGGACCACATCGCCACGGAGTCACCTAGTGCAG”, 8120 fluorescence intensity (a.u.); with “ACTGTTATGTTTGTCCCTTCTGTTTCGGTCACTCCTGGCTCGGAGTCACCTAGTGCAG”, 10400 fluorescence intensity (a.u.).
Consider “CCGTCGCCGCCTGCTATATCTCTCCCTAGGATTTTGGAATCGGAGTCACCTAGTGCAG”, for which the binding signal was 10100 fluorescence intensity (a.u.).
As for “AAATACATGTACATCTTCCTTGTTTGCTTCATACTAAGATCGGAGTCACCTAGTGCAG”, the figure is 11700 fluorescence intensity (a.u.).
For “TGCAGGGTGGGGAGGATAGAAGATGCAAGAGGGGTGTTTGCGGAGTCACCTAGTGCAG”, the binding signal is 9570 fluorescence intensity (a.u.).
Consider “CACCTCCACGTCCATCTCTCTCTCTCTCTCCTCTCTCCTCCGGAGTCACCTAGTGCAG”, for which the binding signal is 10400 fluorescence intensity (a.u.).
Regarding “GCCGGGAGGGAGGGAGGGAGGGAGGGAGGGAGACCCCGCACGGAGTCACCTAGTGCAG”, the binding signal is 15000 fluorescence intensity (a.u.).
For the sequence “TATATTGGATCCACTATCATAACATGATTGTTTTCTCTCACGGAGTCACCTAGTGCAG”, the binding signal was 8090 fluorescence intensity (a.u.).
As for “CAAGCATTCTCTTCGGTGTACCTTTTCCTTTTGTATCTCCCGGAGTCACCTAGTGCAG”, the binding signal was 11500 fluorescence intensity (a.u.).
As to “GCTTCTTTCCTCTTTCGCTCCCCACACCCTTCTTTTGTCGCGGAGTCACCTAGTGCAG”, the binding signal was 10800 fluorescence intensity (a.u.).
With “ACACAAATTTCCAACTTTTCCGTCACATCGTTCCAATTTCCGGAGTCACCTAGTGCAG” the figure was 10500 fluorescence intensity (a.u.); with “ATTTTTTTTAAAAGTAGTTCTTCTGTTTCATATTATAATACGGAGTCACCTAGTGCAG”, 9230 fluorescence intensity (a.u.); with “CTCACACTACACCCACTCATCCACAGCGATCAACCGCATTCGGAGTCACCTAGTGCAG”, 8840 fluorescence intensity (a.u.).
As to “CATCGCACTTTTATTATTGTTCAATTCATTGATAACTCATCGGAGTCACCTAGTGCAG”, the binding signal was 9760 fluorescence intensity (a.u.).
As to “CGGCACTCGCAGGCTCGCAGCGCATGGTAACCATCTTTTACGGAGTCACCTAGTGCAG”, the binding signal was 8240 fluorescence intensity (a.u.).
With “AGTATATGATATATGTCACGTATGTCTCTGTGATCGATCACGGAGTCACCTAGTGCAG”, the binding signal is 9030 fluorescence intensity (a.u.).
With “AATCAAAATTTAAGCCTTTGTAGCTCGAGTATCACTTTTACGGAGTCACCTAGTGCAG”, the binding signal is 8490 fluorescence intensity (a.u.).
For “TTCTTAACATGTCAGTAGTACATTAGTCATATAATCTATACGGAGTCACCTAGTGCAG”, the binding signal was 9720 fluorescence intensity (a.u.).
With “CCCCTTTGTTTTGCTGAAGAATTGCTTGTACAGAACTGCTCGGAGTCACCTAGTGCAG”, the binding signal is 8480 fluorescence intensity (a.u.).
For “AAGACGGGGCCAGATTGTTATTTTGTATCCCTCATCTCAACGGAGTCACCTAGTGCAG”, the binding signal was 9250 fluorescence intensity (a.u.).
As for “GAGATGTGTCCATATTTGTAGTATTGGGTGGTATCTATTTCGGAGTCACCTAGTGCAG”, the binding signal was 8550 fluorescence intensity (a.u.).
“CTCCAAGTCCTCGTCTTGGTTGTCGCAATCATTCGTGGGGCGGAGTCACCTAGTGCAG”: the binding signal was 9700 fluorescence intensity (a.u.).
As for “TTCTATTGGTTGCATGTATTGTATTAATTGGGGTGATTCACGGAGTCACCTAGTGCAG”, the figure is 8880 fluorescence intensity (a.u.); as for “TTTATTTGGTTTCGTATCGCCATCGCTGCTTTATTGTGTGCGGAGTCACCTAGTGCAG”, 9110 fluorescence intensity (a.u.); as for “TCTCGTCTCATCTGGATTGGAATTTTCTCTTCTCTTTAATCGGAGTCACCTAGTGCAG”, 9260 fluorescence intensity (a.u.).
“ATATGCGATAACTATTTTCAGTTTAACTTGTTATTTTTTGCGGAGTCACCTAGTGCAG”: the binding signal was 8720 fluorescence intensity (a.u.).

(Values after paper PMC7819943, “Rice protein-binding microarrays: a tool to detect cis-acting elements near promoter regions in rice”.)
